Values from PubChem BioAssay AID504774 (Drosophila RNAi Screening Center, 2011).
Test: 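Fly genes whose loss alters survival after alkylation damage to DNA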 (primary screen). Cell system: Drosophila Kc167 cells. Knock-down reagent: long dsRNA against Drosophila genes, about 0.25 µg dsRNA per well. Timing: about 6 days: 3 days knock-down, then 3 days with or without MMS. Challenge: methyl methanesulphonate 0.004% (w/v) for 3 days after knock-down. Read-out: 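ATP-dependent luminescence as a measure of live cells in MMS-exposed wells, quantile normalised within each plate, with replicate values also given as a mean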. Reading the numbers: mean viability with MMS and viability with MMS: higher = more surviving cells after MMS.
In all, the deposit lists about 23,000 reagents; this is a random part of those with a known target gene and a result. 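Values are quantile-normalised luminescence on an arbitrary scale; higher means more cells surviving MMS.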 Reagents against one gene are numbered here. A plus sign joins genes that one reagent is predicted to hit.

| gene | dsRNA no. | mean viability with MMS | viability with MMS, replicate 1 | viability with MMS, replicate 2 |
| --- | --- | --- | --- | --- |
| CG17944 | 1 | 3.55e6 | 3.98e6 | 4.09e6 |
| CG31459 | 1 | 3.56e6 | 4.05e6 | 4.03e6 |
| Desi | 1 | 3.67e6 | 4.07e6 | 4.15e6 |
| ste24c + CG30461 | 1 | 3.80e6 | 4.71e6 | 3.98e6 |
| ste24c + CG30461 | 2 | 3.74e6 | 4.11e6 | 4.32e6 |
| CG5043 | 1 | 3.53e6 | 3.99e6 | 4.01e6 |
| CG9259 | 1 | 3.49e6 | 3.98e6 | 3.92e6 |
| CG6142 | 1 | 3.35e6 | 3.76e6 | 3.76e6 |
| Srx | 1 | 3.66e6 | 4.16e6 | 4.10e6 |
| Spn100A | 1 | 3.57e6 | 4.04e6 | 4.06e6 |
| CG8673 | 1 | 3.71e6 | 4.08e6 | 4.33e6 |
| CG14984 | 1 | 3.53e6 | 4.01e6 | 3.98e6 |
| aqrs | 1 | 3.62e6 | 4.06e6 | 4.15e6 |
| Irp-1B | 1 | 3.75e6 | 4.15e6 | 4.17e6 |
| I-2 | 1 | 3.32e6 | 3.65e6 | 3.80e6 |
| I-2 | 2 | 3.76e6 | 4.20e6 | 4.32e6 |

Next part (3 carried over from the part before).
| gene | dsRNA no. | mean viability with MMS | viability with MMS, replicate 1 | viability with MMS, replicate 2 |
| --- | --- | --- | --- | --- |
| Irp-1B | 1 | 3.75e6 | 4.15e6 | 4.17e6 |
| I-2 | 1 | 3.32e6 | 3.65e6 | 3.80e6 |
| I-2 | 2 | 3.76e6 | 4.20e6 | 4.32e6 |
| Rbm13 | 1 | 3.35e6 | 3.87e6 | 3.72e6 |
| tra2 | 1 | 3.53e6 | 3.88e6 | 4.13e6 |
| CG32066 | 1 | 3.78e6 | 4.35e6 | 4.24e6 |
| CG32066 | 2 | 3.73e6 | 4.23e6 | 4.15e6 |
| Cyp4d21 | 1 | 3.66e6 | 4.01e6 | 4.32e6 |
| fend | 1 | 3.47e6 | 3.90e6 | 3.99e6 |
| fend | 2 | 3.49e6 | 3.87e6 | 4.03e6 |
| dpr13 | 1 | 3.67e6 | 4.27e6 | 4.02e6 |
| dpr13 | 2 | 3.43e6 | 3.93e6 | 3.81e6 |
| CG31272 | 1 | 3.62e6 | 4.04e6 | 4.12e6 |
| gol | 1 | 3.57e6 | 4.11e6 | 4.01e6 |
| Nf1 | 1 | 3.59e6 | 4.12e6 | 4.01e6 |
